Assay [1] addresses CP43 (PSII core antenna protein) (Synechocystis sp. PCC 6803 (endogenous)) (UniProt P09193). As to the kind of experiment: AUC.
Assay [2] deals with His-tagged CP47 (PSII core antenna protein CP47) (Synechocystis sp. PCC 6803) (UniProt P05429). Briefly: AUC.
For assay [3] the target is unchanged. Briefly: pull-down.

Amino acid sequences for entries named in this document (tags omitted).
UniProt P05429: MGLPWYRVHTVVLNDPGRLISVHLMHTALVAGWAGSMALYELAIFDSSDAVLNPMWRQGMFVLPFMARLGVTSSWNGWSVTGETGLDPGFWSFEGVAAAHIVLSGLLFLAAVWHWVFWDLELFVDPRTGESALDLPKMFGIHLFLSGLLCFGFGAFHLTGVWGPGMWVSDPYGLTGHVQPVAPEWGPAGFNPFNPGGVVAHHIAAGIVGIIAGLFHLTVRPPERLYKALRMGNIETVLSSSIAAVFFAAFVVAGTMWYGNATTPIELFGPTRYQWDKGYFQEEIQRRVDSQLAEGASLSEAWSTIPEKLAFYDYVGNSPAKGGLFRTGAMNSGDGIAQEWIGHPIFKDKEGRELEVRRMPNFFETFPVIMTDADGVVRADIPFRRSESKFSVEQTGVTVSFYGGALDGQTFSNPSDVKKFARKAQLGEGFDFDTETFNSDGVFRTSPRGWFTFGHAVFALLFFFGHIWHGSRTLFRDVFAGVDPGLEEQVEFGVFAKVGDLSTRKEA
UniProt P14835: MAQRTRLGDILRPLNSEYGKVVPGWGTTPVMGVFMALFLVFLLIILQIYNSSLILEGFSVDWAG

Three substances from paper doi:10.1101/660712 can be followed below.

No constants are given. Whether binding was seen depends on the method and setting. For part of these data: Binding seen in cells or lysates may run through a third protein. Some entries that bind do so weakly or less than the wild type.

As to “CP43 (PSII core antenna protein) (from UniProt P09193 1-460)”, the binding result in assay [1] is listed as “no binding”.
With “His-tagged CP47 (PSII core antenna protein CP47) (from UniProt P05429 1-507)”, the binding result in assay [2] is given as “no binding”.
Consider PsbH (from UniProt P14835 1-64), for which the binding entry in assay [3] was “binds”.
